Whole data set: some 33,000 sequences, median “E-score (-0.5 to 0.5)” near -0.016, cut for the highest 2% near 0.3. This is one part of the list.
target: T1, Yer184c (UniProt P39961); assay: PBM E-score (8-mer binding enrichment) (E-score (-0.5 to 0.5)); higher = stronger / more preferred TF binding; conditions: protein concentration: 100 nM; construct: GST-full length
T1 sequence: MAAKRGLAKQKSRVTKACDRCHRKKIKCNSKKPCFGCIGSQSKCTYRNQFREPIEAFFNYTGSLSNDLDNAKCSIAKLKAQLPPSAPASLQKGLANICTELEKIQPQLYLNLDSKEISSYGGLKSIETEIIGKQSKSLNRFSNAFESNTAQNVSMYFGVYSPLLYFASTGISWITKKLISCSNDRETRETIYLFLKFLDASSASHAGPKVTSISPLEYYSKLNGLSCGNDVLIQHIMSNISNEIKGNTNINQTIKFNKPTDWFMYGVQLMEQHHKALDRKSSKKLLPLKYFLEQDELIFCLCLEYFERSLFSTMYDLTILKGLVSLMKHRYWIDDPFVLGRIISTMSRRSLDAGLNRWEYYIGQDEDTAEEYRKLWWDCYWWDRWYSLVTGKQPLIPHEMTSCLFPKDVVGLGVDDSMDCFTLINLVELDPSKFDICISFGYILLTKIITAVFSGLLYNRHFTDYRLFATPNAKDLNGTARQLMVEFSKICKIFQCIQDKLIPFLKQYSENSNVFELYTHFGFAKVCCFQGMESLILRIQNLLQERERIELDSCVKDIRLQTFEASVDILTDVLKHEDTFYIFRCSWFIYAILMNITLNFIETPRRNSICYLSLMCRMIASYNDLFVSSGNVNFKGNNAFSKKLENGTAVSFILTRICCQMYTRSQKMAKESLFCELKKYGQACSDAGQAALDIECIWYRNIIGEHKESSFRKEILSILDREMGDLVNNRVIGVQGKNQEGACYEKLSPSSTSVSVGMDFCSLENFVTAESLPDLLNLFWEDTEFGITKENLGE
How it was run: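 Yeast transcription factors, full-length or as DNA-binding domains, were expressed with a GST tag using PURExpress in vitro transcription/translation. At about 100-200 nM they were applied to universal all-10-mer Agilent arrays, double-stranded by primer extension on fresh or once-stripped slides. Fluorescent anti-GST detected bound protein, and masliner normalised the scans. E-scores for ungapped eight-base words, pooled with reverse complements, came from the Universal PBM Analysis Suite.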

Going from CCCGTAGG to GAAAGCAC, the “PBM E-score” value rises from -0.109 to -0.0607.

First: ATGAATCG
Second: GCAGTGGA
The “PBM E-score” value of the first is lower: -0.0062 for the first, 0.0183 for the second.

Going from ACACTTAG to AGCGGGAC, the “PBM E-score” value falls from -0.0176 to -0.163.

Compared with GATTACGA, GACTGCCC is lower in “PBM E-score” value: 0.142 for the first, -0.309 for the second.

Going from GATGGAGC to AAGGCTAA, the “PBM E-score” value rises from -0.101 to -0.0364.

Going from CCCAGATC to GTTTGTAA, the “PBM E-score” value rises from -0.202 to 0.107.

Going from ACATTCTG to CAAGAGTC, the “PBM E-score” value rises from -0.144 to -0.0892.

First: GCATAACC
Second: ATACCCGG
The “PBM E-score” value of the first is lower: -0.0619 for the first, 0.179 for the second.

Compared with ATGGAAAC, CAGACAAA is higher in “PBM E-score” value: 0.0248 for the first, 0.157 for the second.

Compared with CACTGGGG, GCGTCGTA is higher in “PBM E-score” value: -0.224 for the first, 0.143 for the second.

Going from CCTGCAGA to AACCGCCC, the “PBM E-score” value rises from -0.112 to -0.0177.

Going from CACAATGC to CACGGCTA, the “PBM E-score” value rises from -0.184 to 0.22.

First: TCGGACCA
Second: CTATGACC
The “PBM E-score” value of the first is higher: 0.238 for the first, -0.123 for the second.

First: GCGAGATA
Second: AACTATCG
The “PBM E-score” value of the first is higher: 0.0462 for the first, -0.0984 for the second.

Compared with ACTAGCTA, AGGGCTAA is higher in “PBM E-score” value: -0.0382 for the first, 0.0382 for the second.

First: ACGAGAGC
Second: AGTTACTA
The “PBM E-score” value of the first is lower: -0.141 for the first, 0.111 for the second.

Compared with CGATCAAG, GACTAGGA is lower in “PBM E-score” value: 0.00801 for the first, -0.0921 for the second.

First: GAGCAACA
Second: CTGGCCTA
The “PBM E-score” value of the first is higher: 0.128 for the first, -0.221 for the second.

First: AGTTCTTC
Second: ACTACACG
The “PBM E-score” value of the first is higher: 0.136 for the first, -0.0557 for the second.

Going from ATCTTTTG to CGCTTCAA, the “PBM E-score” value falls from 0.116 to 0.0363.

First: GCGCTTTA
Second: CCTTTCGA
The “PBM E-score” value of the first is higher: 0.0325 for the first, 0.0208 for the second.

Compared with AAGTTGCC, ATGGCCCG is lower in “PBM E-score” value: 0.118 for the first, -0.0155 for the second.

Going from AAGGCTCA to ACATCATG, the “PBM E-score” value falls from -0.0868 to -0.0883.

Compared with TACTCTAA, AGGGGTCA is lower in “PBM E-score” value: -0.0158 for the first, -0.104 for the second.

Going from CATTCGTA to GCTGACAC, the “PBM E-score” value rises from -0.00254 to 0.0291.

Compared with AGCGGGGG, CAGGCGAA is higher in “PBM E-score” value: -0.406 for the first, -0.0442 for the second.

First: AATAGTAA
Second: CGGCGAGC
The “PBM E-score” value of the first is higher: 0.127 for the first, 0.104 for the second.

First: GCGATAAA
Second: ACTGGGAG
The “PBM E-score” value of the first is higher: -0.116 for the first, -0.196 for the second.

First: CGAAGACA
Second: AGGCACTG
The “PBM E-score” value of the first is higher: 0.0303 for the first, 0.0213 for the second.

Compared with CCTGCAAG, AGAGCCCT is higher in “PBM E-score” value: -0.215 for the first, -0.162 for the second.

First: TGACGGAA
Second: AACGCGCT
The “PBM E-score” value of the first is higher: 0.17 for the first, 0.148 for the second.

Compared with CCACTGGC, GCAAATTA is higher in “PBM E-score” value: -0.0959 for the first, 0.00984 for the second.

Going from ACAACACG to TTAGGCAA, the “PBM E-score” value falls from 0.0383 to -0.168.

Going from CCATACGG to AATTACAA, the “PBM E-score” value rises from 0.0198 to 0.0221.

Compared with AGATTTAT, GGGGACGA is lower in “PBM E-score” value: 0.293 for the first, -0.175 for the second.

Going from AACATAAA to GGGATGCA, the “PBM E-score” value falls from 0.0663 to -0.219.

First: ACAATCTA
Second: CATCTGGG
The “PBM E-score” value of the first is higher: 0.0224 for the first, -0.127 for the second.

Compared with GCTTAGCC, CGCACACC is lower in “PBM E-score” value: -0.0268 for the first, -0.0404 for the second.

Compared with ACGGCTTA, AGACACGA is lower in “PBM E-score” value: 0.193 for the first, 0.0162 for the second.

Compared with ATCTACCG, AACTAGAG is lower in “PBM E-score” value: 0.205 for the first, -0.0689 for the second.

Going from TGACTGAA to ACTAGAGG, the “PBM E-score” value falls from -0.14 to -0.258.

Going from GGGAGCGA to GATCTAAA, the “PBM E-score” value rises from -0.284 to 0.141.

Going from ATCACTCA to CCGAGTGA, the “PBM E-score” value rises from 0.087 to 0.209.

Source: the supplement of paper PMC3334620
